Measurements from the supplement of paper PMC7666118.
The list shows a part of the results.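 Rule for the calls: active = dose-dependent thermal stabilisation significant by F-test of dose-response against flat model at 10% FDR; inactive = not significant.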

Protein sequences, listed by entry. Tags and fused reporters are not part of them. Lines headed by an entry give the natural chain unless they say otherwise; changes in a name come on top.
UniProt Q9NXX6: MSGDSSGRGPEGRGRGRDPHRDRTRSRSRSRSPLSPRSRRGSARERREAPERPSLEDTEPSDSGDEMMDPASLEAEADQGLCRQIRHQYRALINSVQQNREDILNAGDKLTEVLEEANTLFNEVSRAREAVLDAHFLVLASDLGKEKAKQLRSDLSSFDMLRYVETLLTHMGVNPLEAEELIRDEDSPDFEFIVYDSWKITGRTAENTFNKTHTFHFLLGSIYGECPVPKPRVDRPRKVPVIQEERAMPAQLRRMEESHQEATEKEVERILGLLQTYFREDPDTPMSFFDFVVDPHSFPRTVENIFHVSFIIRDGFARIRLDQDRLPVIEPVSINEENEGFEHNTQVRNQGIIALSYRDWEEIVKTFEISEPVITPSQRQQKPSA
UniProt Q969R2: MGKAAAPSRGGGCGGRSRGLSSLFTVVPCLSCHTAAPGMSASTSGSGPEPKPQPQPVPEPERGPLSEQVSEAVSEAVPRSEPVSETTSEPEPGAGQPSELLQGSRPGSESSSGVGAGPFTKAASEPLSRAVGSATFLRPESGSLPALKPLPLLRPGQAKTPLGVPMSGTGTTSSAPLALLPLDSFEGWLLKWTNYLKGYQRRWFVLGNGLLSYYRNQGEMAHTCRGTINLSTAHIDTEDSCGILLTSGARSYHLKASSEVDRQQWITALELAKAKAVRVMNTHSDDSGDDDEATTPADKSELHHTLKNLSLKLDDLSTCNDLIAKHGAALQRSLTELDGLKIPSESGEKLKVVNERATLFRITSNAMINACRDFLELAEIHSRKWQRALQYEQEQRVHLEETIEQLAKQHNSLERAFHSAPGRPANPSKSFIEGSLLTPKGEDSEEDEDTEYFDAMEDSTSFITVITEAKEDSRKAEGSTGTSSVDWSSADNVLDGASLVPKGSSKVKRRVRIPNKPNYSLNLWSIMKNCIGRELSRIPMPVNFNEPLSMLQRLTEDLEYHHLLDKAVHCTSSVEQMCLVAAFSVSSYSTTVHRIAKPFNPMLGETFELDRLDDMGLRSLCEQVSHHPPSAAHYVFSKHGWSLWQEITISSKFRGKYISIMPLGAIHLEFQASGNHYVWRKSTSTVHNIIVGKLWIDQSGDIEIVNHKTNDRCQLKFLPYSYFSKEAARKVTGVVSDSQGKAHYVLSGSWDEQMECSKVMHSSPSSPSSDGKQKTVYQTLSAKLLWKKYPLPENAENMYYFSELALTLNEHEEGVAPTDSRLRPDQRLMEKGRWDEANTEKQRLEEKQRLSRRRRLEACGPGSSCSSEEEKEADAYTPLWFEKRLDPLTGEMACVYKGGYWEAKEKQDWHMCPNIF
UniProt P21359: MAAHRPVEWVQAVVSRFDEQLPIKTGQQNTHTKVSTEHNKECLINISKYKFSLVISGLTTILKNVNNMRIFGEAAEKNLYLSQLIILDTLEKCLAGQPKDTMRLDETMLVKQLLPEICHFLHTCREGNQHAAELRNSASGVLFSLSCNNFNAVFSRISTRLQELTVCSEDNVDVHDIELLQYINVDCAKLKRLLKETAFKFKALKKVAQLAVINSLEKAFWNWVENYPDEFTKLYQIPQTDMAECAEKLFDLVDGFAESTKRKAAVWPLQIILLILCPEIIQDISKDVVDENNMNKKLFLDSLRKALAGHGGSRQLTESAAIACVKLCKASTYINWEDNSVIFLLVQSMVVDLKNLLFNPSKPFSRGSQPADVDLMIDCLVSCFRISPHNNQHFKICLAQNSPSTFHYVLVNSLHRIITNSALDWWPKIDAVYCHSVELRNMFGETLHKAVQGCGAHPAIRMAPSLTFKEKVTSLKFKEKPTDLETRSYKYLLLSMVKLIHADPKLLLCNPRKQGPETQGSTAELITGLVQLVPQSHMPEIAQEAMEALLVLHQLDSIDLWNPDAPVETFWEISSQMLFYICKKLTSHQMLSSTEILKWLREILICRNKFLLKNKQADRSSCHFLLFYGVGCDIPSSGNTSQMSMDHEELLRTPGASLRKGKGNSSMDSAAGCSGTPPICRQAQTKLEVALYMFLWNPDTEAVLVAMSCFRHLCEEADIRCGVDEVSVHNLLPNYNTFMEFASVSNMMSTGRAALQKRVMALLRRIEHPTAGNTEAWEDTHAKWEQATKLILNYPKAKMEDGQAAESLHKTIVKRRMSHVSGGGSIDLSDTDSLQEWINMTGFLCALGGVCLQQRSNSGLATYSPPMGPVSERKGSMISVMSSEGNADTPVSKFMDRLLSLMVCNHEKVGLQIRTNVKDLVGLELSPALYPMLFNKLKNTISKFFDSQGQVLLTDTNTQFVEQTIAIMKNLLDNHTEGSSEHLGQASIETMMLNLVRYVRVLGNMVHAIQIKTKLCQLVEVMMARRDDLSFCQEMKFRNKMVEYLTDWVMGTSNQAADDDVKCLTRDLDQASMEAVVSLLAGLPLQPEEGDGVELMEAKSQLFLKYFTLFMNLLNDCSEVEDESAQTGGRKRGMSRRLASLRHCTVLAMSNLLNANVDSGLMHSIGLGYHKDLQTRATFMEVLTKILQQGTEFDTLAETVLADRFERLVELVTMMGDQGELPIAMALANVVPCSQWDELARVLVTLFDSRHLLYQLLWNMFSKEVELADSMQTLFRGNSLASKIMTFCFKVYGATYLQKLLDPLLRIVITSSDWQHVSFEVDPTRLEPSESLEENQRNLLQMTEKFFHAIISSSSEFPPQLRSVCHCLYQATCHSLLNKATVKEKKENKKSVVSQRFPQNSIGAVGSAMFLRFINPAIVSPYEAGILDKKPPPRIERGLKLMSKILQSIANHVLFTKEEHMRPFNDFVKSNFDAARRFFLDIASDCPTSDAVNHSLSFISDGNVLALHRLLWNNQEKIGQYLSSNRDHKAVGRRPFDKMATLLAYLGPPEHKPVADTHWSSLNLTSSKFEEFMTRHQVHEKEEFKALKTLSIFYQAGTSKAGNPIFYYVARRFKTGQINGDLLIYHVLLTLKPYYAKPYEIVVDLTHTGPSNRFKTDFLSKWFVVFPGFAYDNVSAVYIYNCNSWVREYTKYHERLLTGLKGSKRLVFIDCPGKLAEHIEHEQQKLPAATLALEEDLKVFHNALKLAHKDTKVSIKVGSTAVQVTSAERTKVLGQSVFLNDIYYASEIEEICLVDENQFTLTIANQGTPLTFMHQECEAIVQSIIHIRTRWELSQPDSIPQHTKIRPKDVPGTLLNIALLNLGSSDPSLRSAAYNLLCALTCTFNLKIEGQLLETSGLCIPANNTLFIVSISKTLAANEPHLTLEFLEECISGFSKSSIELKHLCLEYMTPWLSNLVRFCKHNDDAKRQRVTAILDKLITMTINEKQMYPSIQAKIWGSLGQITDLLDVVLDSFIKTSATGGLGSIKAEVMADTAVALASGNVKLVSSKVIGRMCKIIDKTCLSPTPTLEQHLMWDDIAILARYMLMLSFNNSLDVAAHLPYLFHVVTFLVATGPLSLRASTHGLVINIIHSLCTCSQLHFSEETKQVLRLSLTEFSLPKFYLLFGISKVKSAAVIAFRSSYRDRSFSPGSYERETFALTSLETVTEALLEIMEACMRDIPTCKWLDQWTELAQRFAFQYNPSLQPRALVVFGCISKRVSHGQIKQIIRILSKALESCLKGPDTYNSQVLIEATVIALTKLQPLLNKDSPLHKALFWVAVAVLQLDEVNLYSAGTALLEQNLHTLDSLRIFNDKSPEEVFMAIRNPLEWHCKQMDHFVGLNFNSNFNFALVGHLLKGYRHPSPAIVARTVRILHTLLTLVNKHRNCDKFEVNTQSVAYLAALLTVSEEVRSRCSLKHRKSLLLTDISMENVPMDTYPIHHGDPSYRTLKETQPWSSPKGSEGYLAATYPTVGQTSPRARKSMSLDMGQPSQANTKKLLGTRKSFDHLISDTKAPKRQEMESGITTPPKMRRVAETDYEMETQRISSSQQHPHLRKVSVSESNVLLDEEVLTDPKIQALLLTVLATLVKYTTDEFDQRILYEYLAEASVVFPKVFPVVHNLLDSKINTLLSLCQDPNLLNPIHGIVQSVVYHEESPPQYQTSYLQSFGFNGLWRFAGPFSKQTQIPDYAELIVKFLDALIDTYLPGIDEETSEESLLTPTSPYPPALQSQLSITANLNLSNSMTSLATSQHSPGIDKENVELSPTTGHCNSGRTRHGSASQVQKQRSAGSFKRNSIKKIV
UniProt O15294: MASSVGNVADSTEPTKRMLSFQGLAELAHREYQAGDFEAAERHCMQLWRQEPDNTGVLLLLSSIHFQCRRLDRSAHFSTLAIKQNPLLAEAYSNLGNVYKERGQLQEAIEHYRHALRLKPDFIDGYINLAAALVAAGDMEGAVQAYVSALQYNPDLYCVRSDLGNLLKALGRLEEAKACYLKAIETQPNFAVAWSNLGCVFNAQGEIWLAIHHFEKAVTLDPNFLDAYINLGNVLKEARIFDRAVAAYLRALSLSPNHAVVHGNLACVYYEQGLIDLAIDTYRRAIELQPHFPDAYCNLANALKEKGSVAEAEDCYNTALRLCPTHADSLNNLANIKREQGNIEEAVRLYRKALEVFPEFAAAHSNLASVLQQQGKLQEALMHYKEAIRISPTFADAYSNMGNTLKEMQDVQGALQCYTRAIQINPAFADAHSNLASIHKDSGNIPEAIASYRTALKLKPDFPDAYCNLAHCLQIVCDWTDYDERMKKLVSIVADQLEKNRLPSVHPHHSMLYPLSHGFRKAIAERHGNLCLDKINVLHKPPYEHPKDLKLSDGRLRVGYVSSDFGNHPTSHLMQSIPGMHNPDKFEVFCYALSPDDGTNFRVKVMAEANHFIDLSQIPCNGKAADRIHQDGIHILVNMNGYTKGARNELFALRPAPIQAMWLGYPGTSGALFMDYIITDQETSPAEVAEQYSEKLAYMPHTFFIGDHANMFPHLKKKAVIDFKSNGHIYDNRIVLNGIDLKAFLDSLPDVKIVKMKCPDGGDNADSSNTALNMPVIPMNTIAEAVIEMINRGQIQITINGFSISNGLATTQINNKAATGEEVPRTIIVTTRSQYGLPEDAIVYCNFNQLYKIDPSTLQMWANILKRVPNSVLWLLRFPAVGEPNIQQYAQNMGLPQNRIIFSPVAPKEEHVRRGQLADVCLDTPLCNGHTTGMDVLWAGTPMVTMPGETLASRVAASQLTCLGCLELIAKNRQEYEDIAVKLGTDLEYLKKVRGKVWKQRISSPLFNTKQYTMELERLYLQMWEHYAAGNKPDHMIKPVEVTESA
UniProt O96013: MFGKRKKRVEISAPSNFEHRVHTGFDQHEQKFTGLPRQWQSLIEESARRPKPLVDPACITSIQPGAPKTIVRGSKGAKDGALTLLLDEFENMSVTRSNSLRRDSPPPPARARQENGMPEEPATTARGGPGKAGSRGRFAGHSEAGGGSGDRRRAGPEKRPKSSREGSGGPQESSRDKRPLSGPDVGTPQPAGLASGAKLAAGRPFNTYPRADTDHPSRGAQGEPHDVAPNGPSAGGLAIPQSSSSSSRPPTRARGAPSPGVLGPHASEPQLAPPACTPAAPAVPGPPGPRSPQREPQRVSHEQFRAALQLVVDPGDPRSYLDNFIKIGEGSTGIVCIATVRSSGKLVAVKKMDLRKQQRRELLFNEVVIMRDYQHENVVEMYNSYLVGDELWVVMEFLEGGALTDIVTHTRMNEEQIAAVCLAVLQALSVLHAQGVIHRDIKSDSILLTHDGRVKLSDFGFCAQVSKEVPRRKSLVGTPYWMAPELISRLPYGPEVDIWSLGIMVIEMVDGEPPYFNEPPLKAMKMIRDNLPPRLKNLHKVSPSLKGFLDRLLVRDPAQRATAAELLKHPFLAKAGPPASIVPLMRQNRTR
UniProt P13056: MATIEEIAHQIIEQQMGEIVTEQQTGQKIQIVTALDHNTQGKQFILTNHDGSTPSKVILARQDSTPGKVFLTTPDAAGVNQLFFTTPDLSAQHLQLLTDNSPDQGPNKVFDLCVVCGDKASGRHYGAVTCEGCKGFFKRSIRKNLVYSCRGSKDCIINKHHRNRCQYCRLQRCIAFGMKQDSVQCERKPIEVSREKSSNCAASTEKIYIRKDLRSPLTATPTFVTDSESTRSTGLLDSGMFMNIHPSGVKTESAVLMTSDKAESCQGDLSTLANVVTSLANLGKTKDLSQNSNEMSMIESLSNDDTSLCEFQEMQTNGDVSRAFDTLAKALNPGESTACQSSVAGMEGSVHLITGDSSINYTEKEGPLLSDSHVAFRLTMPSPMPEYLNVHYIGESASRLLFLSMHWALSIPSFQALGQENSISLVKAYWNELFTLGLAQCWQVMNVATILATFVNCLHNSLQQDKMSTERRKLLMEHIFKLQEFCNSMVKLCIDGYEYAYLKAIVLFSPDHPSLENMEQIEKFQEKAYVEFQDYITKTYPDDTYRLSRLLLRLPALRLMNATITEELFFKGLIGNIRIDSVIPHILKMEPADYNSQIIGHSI
UniProt Q9UMX5: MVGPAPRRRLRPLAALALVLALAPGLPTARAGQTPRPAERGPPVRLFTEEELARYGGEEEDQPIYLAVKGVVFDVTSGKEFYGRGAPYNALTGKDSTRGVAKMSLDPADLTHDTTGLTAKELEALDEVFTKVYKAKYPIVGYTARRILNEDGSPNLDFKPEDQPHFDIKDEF

What follows are targets tested with Nc1nc2c(ncn2[C@@H]2O[C@H](COP(=O)(O)OP(=O)(O)OP(=O)(O)O)[C@@H](O)[C@H]2O)c(=O)[nH]1 (assay: dose-dependent thermal stabilisation call (2D-TPP, DLPTP, 10% FDR) (binary (1 = stabilised)); higher = stabilised by the compound). Conditions: system: Jurkat gel-filtered lysate; concentration range 1-500 µM.

Row | Target | dose-dependent thermal stabilisation call
1 | NUCB2 (UniProt P80303) | inactive: 0
2 | PALD1 (UniProt Q9ULE6) | inactive: 0
3 | NOL7 (UniProt Q9UMY1) | inactive: 0
4 | NARS (UniProt O43776) | active: 1
5 | NFKB2 (UniProt Q00653) | inactive: 0
6 | OXCT1 (UniProt P55809) | inactive: 0
7 | NUDT16L1 (UniProt Q9BRJ7) | inactive: 0
8 | NSMCE4A (UniProt Q9NXX6) | inactive: 0
9 | PARN (UniProt O95453) | inactive: 0
10 | NPM1 (UniProt P06748) | inactive: 0
11 | NUDT21 (UniProt O43809) | active: 1
12 | PAICS (UniProt P22234) | inactive: 0
13 | OSBP2 (UniProt Q969R2) | inactive: 0
14 | NF1 (UniProt P21359) | inactive: 0
15 | NUP43 (UniProt Q8NFH3) | inactive: 0
16 | OGT (UniProt O15294) | inactive: 0
17 | NUP93 (UniProt Q8N1F7) | inactive: 0
18 | NSMAF (UniProt Q92636) | inactive: 0

Exported as tab-separated lines: part of the list above.
Row	Target	dose-dependent thermal stabilisation call
13	OSBP2 (UniProt Q969R2)	inactive: 0
14	NF1 (UniProt P21359)	inactive: 0

(list continues)

Row | Target | dose-dependent thermal stabilisation call
19 | NEK7 (UniProt Q8TDX7) | active: 1
20 | PAWR (UniProt Q96IZ0) | inactive: 0
21 | NCOA1 (UniProt Q15788) | inactive: 0
22 | PAK4 (UniProt O96013) | active: 1
23 | PARK7 (UniProt Q99497) | inactive: 0
24 | OXSR1 (UniProt O95747) | active: 1
25 | NAGA (UniProt P17050) | inactive: 0
26 | NR2C1 (UniProt P13056) | active: 1
27 | NSD3 (UniProt Q9BZ95) | inactive: 0
28 | NMRAL1 (UniProt Q9HBL8) | inactive: 0
29 | PA2G4 (UniProt Q9UQ80) | inactive: 0
30 | NCOA2 (UniProt Q15596) | inactive: 0
31 | NCL (UniProt P19338) | inactive: 0
32 | PAAF1 (UniProt Q9BRP4) | inactive: 0
33 | NUP54 (UniProt Q7Z3B4) | inactive: 0
34 | NMD3 (UniProt Q96D46) | inactive: 0
35 | NUP205 (UniProt Q92621) | active: 1
36 | NENF (UniProt Q9UMX5) | inactive: 0
